In publication PMC4506499:
These are yes or no findings as the source states them, for the method shown.

Molecular target: Human Upf1 helicase domain (Upf1-HD, 295-914 amino acids) (human) (UniProt Q92900)
Assay: pull-down; calmodulin-binding peptide-Upf1-HD as bait, Upf1-HD as prey; 'under our experimental conditions'; details only in Supplementary Fig. 3; both purified

B1: Human Upf1 helicase domain (Upf1-HD, 295-914 amino acids) (domain or fragment, UniProt Q92900-2 295-914)
chain: RYEDAYQYQNIFGPLVKLEADYDKKLKESQTQDNITVRWDLGLNKKRIAYFTLPKTDSDMRLMQGDEICLRYKGDLAPLWKGIGHVIKVPDNYGDEIAIELRSSVGAPVEVTHNFQVDFVWKSTSFDRMQSALKTFAVDETSVSGYIYHKLLGHEVEDVIIKCQLPKRFTAQGLPDLNHSQVYAVKTVLQRPLSLIQGPPGTGKTVTSATIVYHLARQGNGPVLVCAPSNIAVDQLTEKIHQTGLKVVRLCAKSREAIDSPVSFLALHNQIRNMDSMPELQKLQQLKDETGELSSADEKRYRALKRTAERELLMNADVICCTCVGAGDPRLAKMQFRSILIDESTQATEPECMVPVVLGAKQLILVGDHCQLGPVVMCKKAAKAGLSQSLFERLVVLGIRPIRLQVQYRMHPALSAFPSNIFYEGSLQNGVTAADRVKKGFDFQWPQPDKPMFFYVTQGQEEIASSGTSYLNRTEAANVEKITTKLLKAGAKPDQIGIITPYEGQRSYLVQYMQFSGSLHTKLYQEVEIASVDAFQGREKDFIILSCVRANEHQGIGFLNDPRRLNVALTRARYGVIIVGNPKALSKQPLWNHLLNYYKEQKVLVEGPLNNLRESLMQFS
binding: no binding
